We go through 40 compounds from the supplement of paper PMC8732350.

Structures are written as SMILES. Where “and” joins values, the source holds several entries; their conditions need not be identical. Equal values may be shown once. Where a name gives a salt, the structure may show the parent alone. ± gives the standard deviation of the averaged measurements. Some of the results follow. Single values are uncertain here, since repeats match poorly.

The assay has as its system A549. The assay is described as follows: surface PD-L1 immunofluorescence intensity relative to IFN-gamma-only control (ratio); higher = more PD-L1 expression. The settings on record: 10 µM; exposure time 24 h; IFN-gamma 100 ng/mL.
On to `O=C1[C@H](CC[C@H](O)c2ccc(F)cc2)[C@@H](c2ccc(O)cc2)N1c1ccc(F)cc1` [Ezetimibe (Zetia)], for which the “surface PD-L1 immunofluorescence intensity” value turned out to be 1.03.
As to `COc1ccccc1N1CCN(CCCCNC(=O)c2ccc3ccccc3c2)CC1`, the “surface PD-L1 immunofluorescence intensity” value came out at 0.79.
As to `CCC1NC(=O)c2cc(S(N)(=O)=O)c(Cl)cc2N1` (stereo not given) [Quinethazone], the “surface PD-L1 immunofluorescence intensity” value came to 1.03.
On to `CC(O)(P(=O)(O)O)P(=O)(O)O` [Etidronate (Didronel)], for which the “surface PD-L1 immunofluorescence intensity” value was found to be 1.04.
For the compound `CC(O)(P(=O)(O)O)P(=O)(O)O` [Etidronic acid, disodium salt], the “surface PD-L1 immunofluorescence intensity” value stood at 1.08.
Take `COC(=O)C1=C(C)NC(C)=C(C(=O)OCC(C)C)C1c1ccccc1[N+](=O)[O-]` (stereo not given) [Nisoldipine (Sular)]: the “surface PD-L1 immunofluorescence intensity” value was found to be 0.972.
The same measure for `COC(=O)C1=C(C)NC(C)=C(C(=O)OCC(C)C)C1c1ccccc1[N+](=O)[O-]` (stereo not given) [Nisoldipine]: 0.923; for `Oc1cc(O)c(Cl)cn1` [Gimeracil]: 0.94; for `CC1(C)CCC(C)(C)c2cc(C(=O)Nc3ccc(C(=O)O)cc3)ccc21`: 0.93 and 1.09.
Consider `CC1(C)CNc2cc(NC(=O)c3cccnc3NCc3ccncc3)ccc21` [Motesanib Diphosphate], for which the “surface PD-L1 immunofluorescence intensity” value is 1.07.
As to `COC(=O)C1=C(C)NC(C)=C(C(=O)OCCN(C)Cc2ccccc2)C1c1cccc([N+](=O)[O-])c1` (stereo not given) [Nicardipine hydrochloride], the “surface PD-L1 immunofluorescence intensity” value is 0.881.
Next, `OC[C@H]1O[C@@H](c2ccc(Cl)c(Cc3ccc(O[C@H]4CCOC4)cc3)c2)[C@H](O)[C@@H](O)[C@@H]1O`: 1.11; `CC(=O)N1CCN(C)CC1` [1-Acetyl-4-methylpiperazine hydrochloride]: 1.11.
Turning to `CN1CCN(c2c(F)cc3c(=O)c(C(=O)O)cn4c3c2SCC4)CC1` [Rufloxacin], the “surface PD-L1 immunofluorescence intensity” value is 1.16.
`CCCC(=O)[O-].[Na+]` [Sodium butyrate]: the “surface PD-L1 immunofluorescence intensity” value stood at 1.01.
As to `CCOC(=O)C1=C(C)NC(C)=C(C(=O)OCC)C1` [Diludin], the “surface PD-L1 immunofluorescence intensity” value is 0.906.
As to `CNCc1cc(-c2ccccc2F)n(S(=O)(=O)c2cccnc2)c1`, the “surface PD-L1 immunofluorescence intensity” value is 0.957.
With `O=C1C(O)=C([C@H]2CC[C@H](c3ccc(Cl)cc3)CC2)C(=O)c2ccccc21` [Atovaquone], the “surface PD-L1 immunofluorescence intensity” value came out at 0.992.
The same measure for `CC(C)NCC(O)c1ccc(O)c(O)c1` (single isomer, unassigned; (-)) [(-)-Isoproterenol hydrochloride]: 0.986.
Next, `Cc1ccccc1C(OCCN(C)C)c1ccccc1` (stereo not given) [Orphenadrine hydrochloride]: 0.845.
As for `O=C1CCc2ccc(OCCCCN3CCN(c4cccc(Cl)c4Cl)CC3)cc2N1` [Aripiprazole], the “surface PD-L1 immunofluorescence intensity” value is 1.09.
`CCCCCCCCCCCCCCCC(=O)C(F)(F)F`: the “surface PD-L1 immunofluorescence intensity” value was 0.957.
`CN(C)CCOC(c1ccc(Cl)cc1)c1ccccn1` (stereo not given) [Carbinoxamine maleate salt]: the “surface PD-L1 immunofluorescence intensity” value stood at 0.942.
Consider `Nc1nc2c(ccc3ccccc32)s1`, for which the “surface PD-L1 immunofluorescence intensity” value is 1.03.
Next, `NC(=O)NC1NC(=O)NC1=O` (stereo not given) [Allantoin]: 0.862; `CCCCCCCCCCCC1=C(O)C(=O)C=C(O)C1=O` [Embelin]: 1.01; `CN[C@@H]1[C@H](O[C@H]2[C@H](O[C@H]3[C@H](O)[C@@H](O)[C@H](NC(=N)N)[C@@H](O)[C@@H]3NC(=N)N)O[C@@H](C)[C@]2(O)CO)O[C@@H](CO)[C@H](O)[C@H]1O` [Dihydrostreptomycin sulfate]: 0.972.
As for `NCc1ccc(S(N)(=O)=O)cc1` [Mafenide hydrochloride], the “surface PD-L1 immunofluorescence intensity” value came to 0.963.
Next, `Cc1ccccc1N=Nc1ccc(NC(=O)c2ccnn2C)c(C)c1`: 0.987.
On to `O=c1[nH]nc(Sc2ncc([N+](=O)[O-])s2)n1-c1ccc2c(c1)OCCO2`, for which the “surface PD-L1 immunofluorescence intensity” value was 1.04 ± 0.067.
For `CCN(CCCOc1ccc2c(Nc3cc(CC(=O)Nc4cccc(F)c4)[nH]n3)ncnc2c1)CCOP(=O)(O)O` [Barasertib (AZD1152-HQPA)], the “surface PD-L1 immunofluorescence intensity” value was found to be 0.987.
Turning to `c1ccc(-c2n[nH]c3c2oc2ccccc23)cc1`, the “surface PD-L1 immunofluorescence intensity” value came out at 1.03.
Take `c1ccc2oc(C3=NCCN3)cc2c1` [2-BFI hydrochloride]: the “surface PD-L1 immunofluorescence intensity” value worked out at 1.04.
As to `CCc1oc2ccccc2c1C(=O)c1cc(Br)c(O)c(Br)c1` [Benzbromarone], the “surface PD-L1 immunofluorescence intensity” value came out at 0.956.
In the case of `CC/C(=C(\c1ccccc1)c1ccc(OCCN(C)C)cc1)c1ccccc1` [Tamoxifen citrate], the “surface PD-L1 immunofluorescence intensity” value amounted to 1.06 ± 0.071.
With `CC/C(=C(\c1ccccc1)c1ccc(OCCN(C)C)cc1)c1ccccc1` [Tamoxifen], the “surface PD-L1 immunofluorescence intensity” value amounted to 1.1.
On to `C=C(c1ccc(C(=O)O)cc1)c1cc2c(cc1C)C(C)(C)CCC2(C)C` [Bexarotene], for which the “surface PD-L1 immunofluorescence intensity” value was 1.08.
For the compound `CC(C)(C)NCC(O)c1cc(O)cc(O)c1` (stereo not given) [Terbutaline hemisulfate], the “surface PD-L1 immunofluorescence intensity” value is 0.948.
`O=C(O)CCCCC1CCSS1` (racemic) [DL-?-Lipoic acid]: the “surface PD-L1 immunofluorescence intensity” value stood at 0.968.
Next, `NS(=O)(=O)c1cc2c(cc1Cl)NC(CC1CCCC1)NS2(=O)=O` (stereo not given) [Cyclopenthiazide]: 1.
